{"source": "patent US20260306500A1", "about": "“METHOD OF INHIBITING ADENOSINE TRIPHOSPHATE SECRETION, METHOD OF INHIBITING HEPATIC STELLATE CELL ACTIVATION, METHOD OF DEACTIVATING HEPATIC STELLATE CELL, METHOD OF TREATING HEPATIC FIBROSIS, METHOD OF TREATING NON-ALCOHOLIC STEATOHEPATITIS, AND METHOD OF TREATING PSORIASIS” (Kurume University, priority 2023, published 2026)", "origin": "cited, not measured here", "test_system": "ATP secretion", "conditions": "known; cited from earlier work", "note": "At least one compound was matched to its structure with a doubt left.", "data": [{"smiles": "CC/C=C\\C/C=C\\C/C=C\\C/C=C\\C/C=C\\CCCC(=O)O", "note": "[EPA, eicosapentaenoic acid]", "values": [{"measurement": "ATP secretion inhibitory action", "value": "known to have an ATP secretion inhibitory action"}]}]}
